Screen size: about 360,000 compounds; about 10,000 (2.8%) were called active. This list was built around the results that the source calls inconclusive (neither active nor inactive); the mix of calls is not that of the screen. Calls follow the shape of the dose curve; as a rule, active = well fitted inhibition curve with a large enough effect; inconclusive = small, poorly fitted or top-dose-only effect; inactive = flat fitted curve, though single readings scatter. A potency beside an inconclusive call is a rough fit, not a confirmed value.
target: Serine/threonine-protein kinase PLK1 (Homo sapiens) (UniProt P53350); assay: qHTS for Inhibitors of PLK1-PDB (polo-like kinase 1 - polo-box domain): Primary Screen; details: Plk1 PBD binding of FITC phosphopeptide, fluorescence polarization; also: nearly all actives have a fitted effect of over 65% in size; as to max response, negative = inhibition: series mostly up to about 57 µM
% is scaled to controls: 0 for no effect and ±100 for the full control effect; potency is read from the fitted curve at half-maximal effect.

Chains of the proteins cited; added tags and fusions are not shown.
UniProt P53350, whole entry, looked up: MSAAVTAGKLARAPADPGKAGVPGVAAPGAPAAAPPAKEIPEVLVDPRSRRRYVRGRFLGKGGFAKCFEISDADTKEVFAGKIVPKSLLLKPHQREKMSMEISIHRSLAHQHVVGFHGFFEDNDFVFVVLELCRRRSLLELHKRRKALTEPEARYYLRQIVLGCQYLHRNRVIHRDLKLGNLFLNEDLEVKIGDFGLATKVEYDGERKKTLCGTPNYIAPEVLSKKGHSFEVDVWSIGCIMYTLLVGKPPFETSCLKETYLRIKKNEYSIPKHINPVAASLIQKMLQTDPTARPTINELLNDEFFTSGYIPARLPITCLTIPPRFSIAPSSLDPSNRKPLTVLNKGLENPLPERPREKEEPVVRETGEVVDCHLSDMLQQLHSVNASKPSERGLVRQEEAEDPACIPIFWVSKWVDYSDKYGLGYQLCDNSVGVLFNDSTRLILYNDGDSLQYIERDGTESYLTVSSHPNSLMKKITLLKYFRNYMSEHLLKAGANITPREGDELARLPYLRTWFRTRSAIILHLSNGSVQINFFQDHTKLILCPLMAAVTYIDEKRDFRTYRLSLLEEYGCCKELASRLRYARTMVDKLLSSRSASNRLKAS

Structure (SMILES)	Potency	max response, negative = inhibition
Cn1c(CNc2cccc(C(F)(F)F)c2)n[nH]c1=S	active: 26.7 µM	–
N#CC1C=Cc2ccccc2N1C(=O)c1ccccc1 (stereo not given)	–	inconclusive: -31.9% [inhibitor]
S=C(Nc1ccc2nc(-c3ccccn3)c(-c3ccccn3)nc2c1)N1CCCCCC1	inconclusive: 37.7 µM [inhibitor, single point]	–
Cc1ccc(-c2cc(C(=O)OCC(=O)N(C)C3CCS(=O)(=O)C3)c3ccccc3n2)o1 (stereo not given)	inconclusive: 37.7 µM [inhibitor, partial curve]	–
CCCc1noc2c1C(c1ccoc1)C(C#N)=C(N)N2 (stereo not given)	–	inconclusive: -31.9% [inhibitor]
Cc1ccccc1C(=O)NC(CC(C)C)C(=O)N1CCN(c2ccccc2)CC1 (stereo not given)	–	inactive: 0.767%
CCOC(=O)C(=Cc1ccc(Br)cc1)C(=O)OCC	active: 16.8 µM	–
Cc1nn(C)c(C)c1CN(C)C(=O)c1nn2c(c1Br)NC(c1cccs1)CC2C(F)(F)F (stereo not given)	inconclusive: 21.2 µM [inhibitor, single point]	–
Cc1cc(Cl)ccc1NNC(=O)c1c(C)noc1C	inconclusive: 26.7 µM [inhibitor, single point]	–
COc1ccc2c(c1)-c1nc(N)sc1CC2	inconclusive: 26.7 µM [inhibitor, single point]	–
COc1cc(/C=C/C(=O)O)cc(S(=O)(=O)NC2CC2)c1OC	inconclusive: 23.8 µM [inhibitor, partial curve]	–
O=C(c1ccccc1)c1ccc(OC(=O)N2CCCC2)cc1	inconclusive: 18.9 µM [inhibitor, single point]	–
Cc1ccc(/C=C2/SC(=S)N(C3CCCCC3)C2=O)o1	inconclusive: 37.7 µM [inhibitor, single point]	–
CCC1CCCCN1S(=O)(=O)c1ccc(C(=O)Nc2nnc(-c3ccccc3Cl)o2)cc1 (stereo not given)	inconclusive: 33.6 µM [inhibitor, single point]	–
Cc1cccc(COc2ccc(/C=N/NC(=O)c3nnn(-c4nonc4N)c3C)cc2)c1	active: 21.2 µM	–
Oc1ccc(C2CNCc3sccc32)cc1O (stereo not given)	–	inactive: -10.3%
C=CCc1cccc(/C=N/NC(=O)CNc2ccccc2OC)c1O	–	inactive: -5.05%
COC(=O)c1cc2occc2n1Cc1nc(-c2ccc(Cl)cc2)oc1C	active: 29.9 µM	–
COc1cc(C(=O)O/N=C2/C=C(C)C(=O)C=C2C)cc(OC)c1OC	inconclusive: 2.12 µM [inhibitor, full curve]	–
CCc1cnc(Nc2nc(C(N)Cc3ccc(F)cc3)cs2)nc1 (stereo not given)	–	inactive: -6.94%
Cc1c(N=Cc2cc(Br)cc(Br)c2O)cccc1C(=O)O	inconclusive: 23.8 µM [inhibitor, single point]	–
Cc1ccc(N/C=C(\C2OC(=O)c3ccccc32)[N+](=O)[O-])c(C)c1 (stereo not given)	inconclusive: 33.6 µM [inhibitor, partial curve]	–
NC(=O)CSCc1nc2ccccc2s1	inconclusive: 16.8 µM [inhibitor, partial curve]	–
COc1ccc(NC(=O)COc2nsnc2N2CCOCC2)cc1	inconclusive: 37.7 µM [inhibitor, partial curve]	–
c1ccc2nc(SCc3cn4ccccc4n3)cnc2c1	inconclusive: 21.2 µM [inhibitor, partial curve]	–

Of the compounds above, these contain a COOH group.
Structure (SMILES)	Potency	max response, negative = inhibition
COc1cc(/C=C/C(=O)O)cc(S(=O)(=O)NC2CC2)c1OC	inconclusive: 23.8 µM [inhibitor, partial curve]	–
Cc1c(N=Cc2cc(Br)cc(Br)c2O)cccc1C(=O)O	inconclusive: 23.8 µM [inhibitor, single point]	–

(list continues)

Structure (SMILES)	Potency	max response, negative = inhibition
Cc1ccc(NC(=O)CCSc2nnc(C)o2)cc1	inconclusive: 26.7 µM [inhibitor, partial curve]	–
CCOC(=O)[C@]12CCCC=C1N(Cc1ccccc1)C(=O)[C@H](CC(=O)NCc1cccc3ccccc13)C2	–	inactive: -0.925%
Cc1ccn2c(c1)nc(=O)c1cc(S(=O)(=O)N3CCC(C)CC3)ccc12	inconclusive: 23.8 µM [inhibitor, partial curve]	–
CCOC(=O)c1sc(NC(=O)c2cc(-c3ccc(C)cc3)nc3ccccc23)c(C#N)c1C	active: 2.67 µM	–
Cc1ccc(C)n1-c1ccc(C(=O)N/N=C/c2ccncc2)cc1	inconclusive: 29.9 µM [inhibitor, single point]	–
COc1cccc(NC(=O)COC(=O)c2ccc(S(=O)(=O)NCc3ccco3)cc2)c1	–	inactive: -20.7%
Cc1cnc(C=NNC(N)=S)c2cccc(N)c12	active: 23.8 µM	–
CSc1ccccc1NC(=O)c1ccc([N+](=O)[O-])cc1	active: 23.8 µM	–
N#Cc1c(Nc2cccc(F)c2)sc2c(O)cc(=O)[nH]c12	–	inactive: 2.07%
NC(=O)CSc1ccc(Br)cc1	inconclusive: 21.2 µM [inhibitor, partial curve]	–
Cc1ccc(S(=O)(=O)/C=C2\NC(=O)CS2)cc1	inconclusive: 29.9 µM [inhibitor, single point]	–
COc1ccc(NC(=O)CN(C)CC(=O)c2c(C)[nH]c3ccccc23)cc1	–	inactive: -3.35%
COn1c(SC(C)C)nc2ccccc2c1=O	–	inactive: -5.41%
COC(=O)c1ccc2nc(NC(=O)CSCC(=O)OCC(=O)c3ccccc3)sc2c1	inconclusive: 29.9 µM [inhibitor, partial curve]	–
COc1ccc(S(=O)(=O)N2CCCCC2)cc1C(=O)NC1CCS(=O)(=O)C1 (stereo not given)	–	inactive: 5.08%
Cc1nn(CC(O)CN2c3ccccc3Sc3ccccc32)c(C)c1Br (stereo not given)	active: 3.77 µM	–
Cc1ccc(Sc2cc(NCCCO)c([N+](=O)[O-])c3nonc23)cc1	active: 23.8 µM	–
Cc1cccc(NCCC(=O)c2ccc([N+](=O)[O-])cc2)c1C	inconclusive: 11.9 µM [inhibitor, partial curve]	–
CCOc1cc(C(c2c(C)[nH][nH]c2=O)c2c(C)[nH][nH]c2=O)ccc1OS(=O)(=O)c1ccccc1	–	inconclusive: -30.8% [inhibitor]
CCNC(=S)Nc1ccc(Cl)c([N+](=O)[O-])c1	inconclusive: 16.8 µM [inhibitor, partial curve]	–
CCCc1cc(=O)[nH]c(SCC(=O)Nc2cc(S(=O)(=O)N(CC)c3ccccc3)ccc2Cl)n1	inconclusive: 15 µM [inhibitor, partial curve]	–
O=[N+]([O-])c1ccc(/C=N/Nc2ncc(-c3ccccc3)cn2)cc1	inconclusive: 29.9 µM [inhibitor, single point]	–
Cc1cccc(NC(=O)Cn2c(O)c(N=NC(N)=S)c3ccccc32)c1	inconclusive: 4.74 µM [inhibitor, partial curve]	–
CCOC(=O)c1c[nH]c2c3c(ccc2c1=O)CCCC3	–	inactive: -0.877%
N#C/C(=C\c1cccn1S(=O)(=O)c1cccc([N+](=O)[O-])c1)S(=O)(=O)c1ccc(F)cc1	inconclusive: 26.7 µM [inhibitor, partial curve]	–

Structure (SMILES)	Potency	max response, negative = inhibition
Cc1cccc(OC(C)C(=O)N/N=C\c2ccncc2)c1 (stereo not given)	–	inactive: -7.04%
COc1ccc(-c2nnc(SCC(=O)N3CCN(c4ccccc4)CC3)o2)cc1OC	inconclusive: 37.7 µM [inhibitor, single point]	–
COc1ccc(NC(=O)NC2CCCCC2C)cc1 (stereo not given)	–	inactive: -9.84%
CCOC(=O)NC(N(O)c1cccc(Cl)c1)C(Cl)(Cl)Cl (stereo not given)	inconclusive: 29.9 µM [inhibitor, partial curve]	–
COc1cc(CNc2ccc(S(N)(=O)=O)cc2)ccc1OCc1ccccc1F	–	inactive: 0.582%
Cc1ccc(NC(=O)CCN2C(=O)c3ccccc3Sc3ncccc32)cc1	–	inconclusive: -35.7% [inhibitor]
Cc1ccc(Cl)cc1NC(=S)NCCCSC1CCCCC1	–	inactive: -10.1%
NNc1ccc2nnc(C(F)(F)C(F)(F)C(F)(F)F)n2n1	–	inactive: -10.6%
O=[N+]([O-])c1c(NCCCO)cc(Sc2ccc(Cl)cc2)c2nonc12	active: 2.38 µM	–
CCCNC(=O)c1nnsc1S(=O)(=O)c1ccc(Cl)cc1	inconclusive: 11.9 µM [inhibitor, partial curve]	–
Cc1cc[n+](-c2[nH]c(=O)sc2/C=N/N=C(\[O-])c2ccccc2)cc1C	active: 23.8 µM	–
O=C(O)c1cc(O)c2c(c1)C(=O)c1cc(O)cc(O)c1C2=O	inconclusive: 29.9 µM [inhibitor, single point]	–
Cc1ccc(NC(=S)NNC(=S)Nc2ccc(C)cc2C)cc1	active: 10.6 µM	–
COc1ccc(-c2c(C#N)c(SCC(=O)Nc3ccccc3)nc3c2CCCC3)cc1	–	inactive: -28.2%
Cc1n[nH]c(=O)c2c(NC(=O)CSc3ccccc3F)oc(C)c12	inconclusive: 26.7 µM [inhibitor, partial curve]	–
COc1ccccc1N1CCN(C(=O)c2cc3cc(F)ccc3[nH]2)CC1	inconclusive: 15 µM [inhibitor, single point]	–
Cc1ccc(C(=O)NCc2ccc3c(c2)OCO3)o1	–	inactive: -6.56%
CN(CCN(C)C(C)(C)C)C(=O)C(c1ccccc1)c1ccccc1	–	inactive: 3.17%
COc1cc2c(cc1OC)C(C1C(=O)CC(C)(C)CC1=O)N(C(=O)CCl)CC2 (stereo not given)	–	inactive: 69.6%
Cc1ccccc1[C@@H](NC(=O)OC(C)(C)C)C(=O)OC(C)(C)C	–	inactive: -3.68%
CCN(CC)S(=O)(=O)c1ccc2oc(C(=O)NC(C)C)c(C)c2c1	active: 26.7 µM	–
Cc1nccn1-c1ccc(C(F)(F)F)cc1[N+](=O)[O-]	–	inactive: -2.72%
CCOC(=O)C1=C(C(=O)OCC)N(CC)CCC1=O	inconclusive: 4.74 µM [inhibitor, partial curve]	–
N#CCCN(Cc1ccccc1)C(=O)c1nccnc1C(=O)O	–	inactive: -26.5%
COCCn1c(SCC(=O)c2ccc(F)cc2)nnc1C(C)C	inconclusive: 33.6 µM [inhibitor, single point]	–

11 structures already listed, arranged by number of heavy atoms, falling:
Structure (SMILES)	Potency	max response, negative = inhibition
COc1ccc(-c2nnc(SCC(=O)N3CCN(c4ccccc4)CC3)o2)cc1OC	inconclusive: 37.7 µM [inhibitor, single point]	–
COc1cc(CNc2ccc(S(N)(=O)=O)cc2)ccc1OCc1ccccc1F	–	inactive: 0.582%
COc1cc2c(cc1OC)C(C1C(=O)CC(C)(C)CC1=O)N(C(=O)CCl)CC2 (stereo not given)	–	inactive: 69.6%
COc1ccccc1N1CCN(C(=O)c2cc3cc(F)ccc3[nH]2)CC1	inconclusive: 15 µM [inhibitor, single point]	–
CN(CCN(C)C(C)(C)C)C(=O)C(c1ccccc1)c1ccccc1	–	inactive: 3.17%
Cc1n[nH]c(=O)c2c(NC(=O)CSc3ccccc3F)oc(C)c12	inconclusive: 26.7 µM [inhibitor, partial curve]	–
Cc1ccccc1[C@@H](NC(=O)OC(C)(C)C)C(=O)OC(C)(C)C	–	inactive: -3.68%
Cc1ccc(Cl)cc1NC(=S)NCCCSC1CCCCC1	–	inactive: -10.1%
Cc1cccc(OC(C)C(=O)N/N=C\c2ccncc2)c1 (stereo not given)	–	inactive: -7.04%
CCOC(=O)NC(N(O)c1cccc(Cl)c1)C(Cl)(Cl)Cl (stereo not given)	inconclusive: 29.9 µM [inhibitor, partial curve]	–
Cc1ccc(C(=O)NCc2ccc3c(c2)OCO3)o1	–	inactive: -6.56%

Source: PubChem BioAssay AID720504 (National Center for Advancing Translational Sciences (NCATS), 2013)
